Reference: patent US20160047821A1
Results are given in words; binding and its absence hold for the method and conditions named. Binding seen in cells or lysates may run through a third protein. Some results given as binding are weak or reduced against the parent protein; the word gives no strength.

Chains of the proteins cited; added tags and fusions are not shown. Lines headed by an entry give the natural chain unless they say otherwise; changes in a name come on top.
UniProt Q60680: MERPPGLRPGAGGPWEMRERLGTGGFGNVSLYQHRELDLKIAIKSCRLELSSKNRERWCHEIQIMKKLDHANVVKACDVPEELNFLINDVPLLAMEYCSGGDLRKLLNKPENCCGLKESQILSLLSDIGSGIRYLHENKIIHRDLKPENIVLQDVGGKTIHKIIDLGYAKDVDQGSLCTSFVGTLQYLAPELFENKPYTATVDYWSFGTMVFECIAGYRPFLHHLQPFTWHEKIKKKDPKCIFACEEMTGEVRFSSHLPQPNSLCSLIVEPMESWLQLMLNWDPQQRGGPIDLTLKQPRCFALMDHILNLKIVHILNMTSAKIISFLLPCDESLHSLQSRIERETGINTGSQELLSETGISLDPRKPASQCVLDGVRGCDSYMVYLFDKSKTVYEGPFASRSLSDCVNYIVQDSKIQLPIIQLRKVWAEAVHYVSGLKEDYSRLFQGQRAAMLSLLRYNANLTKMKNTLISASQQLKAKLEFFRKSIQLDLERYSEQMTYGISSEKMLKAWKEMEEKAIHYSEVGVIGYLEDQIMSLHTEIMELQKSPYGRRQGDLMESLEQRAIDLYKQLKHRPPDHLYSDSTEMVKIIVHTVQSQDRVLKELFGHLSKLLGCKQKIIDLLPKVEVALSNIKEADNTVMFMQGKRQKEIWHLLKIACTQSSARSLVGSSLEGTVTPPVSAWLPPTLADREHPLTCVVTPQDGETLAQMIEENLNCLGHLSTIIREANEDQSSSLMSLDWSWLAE
UniProt O88351: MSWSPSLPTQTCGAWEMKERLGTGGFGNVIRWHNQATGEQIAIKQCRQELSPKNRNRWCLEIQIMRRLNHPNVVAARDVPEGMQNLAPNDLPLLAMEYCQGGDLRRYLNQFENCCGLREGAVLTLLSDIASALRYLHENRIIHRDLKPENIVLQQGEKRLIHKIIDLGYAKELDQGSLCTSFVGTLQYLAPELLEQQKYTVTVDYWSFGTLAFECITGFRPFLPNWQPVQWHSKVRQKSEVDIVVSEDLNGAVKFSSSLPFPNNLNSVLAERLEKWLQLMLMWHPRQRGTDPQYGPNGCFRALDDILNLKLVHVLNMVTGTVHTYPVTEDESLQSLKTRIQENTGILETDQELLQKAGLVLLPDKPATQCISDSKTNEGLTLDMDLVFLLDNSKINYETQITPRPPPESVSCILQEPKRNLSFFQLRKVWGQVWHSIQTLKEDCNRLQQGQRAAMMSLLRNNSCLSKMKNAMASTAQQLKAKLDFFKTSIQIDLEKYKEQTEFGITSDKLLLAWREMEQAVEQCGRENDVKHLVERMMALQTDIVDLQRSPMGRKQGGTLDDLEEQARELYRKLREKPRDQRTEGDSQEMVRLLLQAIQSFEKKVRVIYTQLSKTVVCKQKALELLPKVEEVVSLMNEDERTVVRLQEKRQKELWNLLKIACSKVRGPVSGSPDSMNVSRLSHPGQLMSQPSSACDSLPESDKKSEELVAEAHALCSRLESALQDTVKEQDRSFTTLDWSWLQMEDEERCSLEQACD
UniProt O88522: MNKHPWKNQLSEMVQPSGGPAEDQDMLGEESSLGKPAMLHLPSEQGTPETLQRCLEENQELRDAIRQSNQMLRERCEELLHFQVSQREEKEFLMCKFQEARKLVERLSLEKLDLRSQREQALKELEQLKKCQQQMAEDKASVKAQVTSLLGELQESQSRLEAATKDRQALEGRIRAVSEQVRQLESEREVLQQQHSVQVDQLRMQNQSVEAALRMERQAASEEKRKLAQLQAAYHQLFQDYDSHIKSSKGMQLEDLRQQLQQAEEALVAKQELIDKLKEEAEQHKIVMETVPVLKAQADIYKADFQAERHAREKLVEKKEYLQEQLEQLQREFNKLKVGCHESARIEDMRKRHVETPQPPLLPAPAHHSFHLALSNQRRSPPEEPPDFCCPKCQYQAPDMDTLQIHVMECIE

Biological target: IκB kinase (IKK) complex (endogenous, WT MEFs) (mouse) (UniProt Q60680+O88351+O88522)
Experiment: coimmunoprecipitation from WT MEF whole cell extracts, untreated or TNFα for 6 hours

B1: endogenous RelB of WT mouse embryonic fibroblasts (MEFs) (protein)
chain: MPSRRAARESAPELGALGSSDLSSLSLTVSRTTDELEIIDEYIKENGFGLDGTQLSEMPRLVPRGPASLSSVTLGPAAPPPPATPSWSCTLGRLVSPGPCPRPYLVITEQPKQRGMRFRYECEGRSAGSILGESSTEASKTLPAIELRDCGGLREVEVTACLVWKDWPHRVHPHSLVGKDCTDGVCRVRLRPHVSPRHSFNNLGIQCVRKKEIEAAIERKIQLGIDPYNAGSLKNHQEVDMNVVRICFQASYRDQQGHLHRMDPILSEPVYDKKSTNTSELRICRINKESGPCTGGEELYLLCDKVQKEDISVVFSTASWEGRADFSQADVHRQIAIVFKTPPYEDLEISEPVTVNVFLQRLTDGVCSEPLPFTYLPRDHDSYGVDKKRKRGLPDVLGELSSSDPHGIESKRRKKKPVFLDHFLPGHSSGLFLPPSALQPADSDFFPASISLPGLEPPGGPDLLDDGFAYDPSAPTLFTMLDLLPPAPPLASAVVGSGGAGATVVESSGPEPLSLDSFAAPGPGDVGTASLVGSNMFPNQYREAAFGGGLLSPGPEAT
- binding: binds
